Data on 62 molecules can be found in PubChem BioAssay AID493014 (National Center for Advancing Translational Sciences (NCATS), 2011).

The list shows a part of the results. Shown are side measurements of this screen, not its main read-out; they come without a call. The list favours compounds with an active or inconclusive main result. The note in brackets gives the kind of curve behind each potency; many fits are weak.

A short description of the test: qHTS Assay to Find Inhibitors of Chronic Active B-Cell Receptor Signaling. The settings on record: ABC-DLBCL IkBa-CBG/CBR reporter, luminescence ratio (green luciferase fused to IkBa over red control in TMD8 lymphoma cells), 4 h. The method, boiled down:
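TMD8 human ABC-DLBCL cells with doxycycline-inducible IκBα–green luciferase fusion and unfused red luciferase, in 0.5% FBS medium; compounds up to 46 uM, 4 h at 37C. Green/red luminescence ratio, filter-overlap corrected, fitted to concentration-response curves.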
(qHTS replaces the single test concentration by a dilution series.)

The mark [1] stands for this setting: measured here: CBR red luminescence, cell number.
The mark [2] stands for this setting: measured here: IkBa-CBG green luminescence.

As for `CC1Cc2ccccc2N1Cc1cc(=O)c(OCC(=O)Nc2ccccc2)co1` (stereo unspecified), the AC50 (usually the concentration giving half of the maximal activity seen) under setting [1] was 6.51 µM [rising, single point].

`CC(C)c1ccc(OCC(=O)NC2=NCCS2)cc1`: the AC50 under setting [1] was 3.98 µM [rising, single point].

For `COc1cccc(C(=O)Nc2cccc(-c3nc4ncccc4o3)c2C)c1`, under setting [1], the AC50 is 7.08 µM [falling, partial curve, poor fit].

On to `CC1CCC2CCCCC2N1C(=O)c1cc([N+](=O)[O-])cc([N+](=O)[O-])c1` (stereo unspecified), for which, under setting [1], the AC50 is 0.282 µM [falling, full curve, poor fit].

`CCCCCCCCCn1c2c(c(=N)c3c1CCC3)CCC2`: the half-maximal activity concentration (AC50) is, setting by setting: under setting [1], 0.82 µM [falling, full curve, poor fit]; under setting [2], 23.1 µM [rising, partial curve, poor fit].

As to `O=C(NC(=O)c1ccccc1O)c1ccc(C(F)(F)F)cc1`, under setting [1], the concentration at half-maximal activity (AC50) was 2.24 µM [falling, full curve].

As to `COc1ccccc1-n1c(-c2ccc(Cl)cc2)c[nH]c1=S`, under setting [1], the concentration at half-maximal activity (AC50) is 25.1 µM [falling, single point].

`CC[n+]1c(/C=C/c2ccc(OC(C)=O)c(OC)c2)ccc2ccccc21`: the AC50 under setting [1] was 6.31 µM [rising, partial curve, poor fit].

`O=C(NC(=S)NNC(=O)c1cccs1)c1ccccc1`: the AC50 under setting [1] was 6.31 µM [falling, partial curve].

With `O=C(CCCn1c(=O)oc2ccccc21)N1CCN(c2ccc(F)cc2)CC1`, the AC50 under setting [1] is 3.16 µM [rising, partial curve, poor fit].

On to `Nc1nc(-c2ccccc2)nc2sc3c(c12)CCCC3`, for which the concentration at half-maximal activity (AC50) under setting [1] is 16.4 µM [falling, partial curve, poor fit].

For `Cc1ccc(NC(=O)CN(C)CC(=O)Nc2ccc(N3CCOCC3)cc2)c([N+](=O)[O-])c1`, the concentration at half-maximal activity (AC50) under setting [1] is 4.61 µM [rising, full curve, poor fit].

`CCOc1ccc2nc(COC(=O)c3cccs3)c(C(C)=O)[n+]([O-])c2c1`: under setting [1], the AC50 is 35.5 µM [falling, single point].

Regarding `Cc1ccsc1C1C(C#N)=C(N)Oc2n[nH]c(C)c21` (stereo unspecified), the AC50 under setting [1] is 10 µM [falling, partial curve].

With `Cc1cccc(OCC(=O)Nc2ccc3c(c2)nc(CCN2CCN(c4ccccn4)CC2)n3C)c1`, the AC50 under setting [1] is 22.4 µM [falling, single point].

As to `CCN1C(=O)C(c2ccc(O)cc2)(c2ccc(O)cc2)c2ccccc21`, the concentration at half-maximal activity (AC50) under setting [1] is 11.2 µM [falling, partial curve].

Take `Nc1c(Cl)cc(C2=NCCn3nc4cc([N+](=O)[O-])ccc4c32)cc1Cl`: under setting [1], the AC50 was 1.46 µM [falling, partial curve, poor fit].

On to `O=C(Nc1cccc(OCC(=O)N2CCOCC2)c1)c1ccc(C(F)(F)F)cc1`, for which the half-maximal activity concentration (AC50) under setting [1] was 17.8 µM [falling, partial curve, poor fit].

On to `COCc1cc(=O)n2[nH]c(-c3cccs3)cc2n1`, for which the half-maximal activity concentration (AC50) under setting [1] was 11.2 µM [falling, partial curve, poor fit].

With `COCCNC(=O)[C@H]1N2C(=O)c3c(ccc(OC)c3OC)C2SC1(C)C` (stereo partly specified), the AC50 under setting [1] was 4.47 µM [rising, full curve, poor fit].

Take `CC(=O)Oc1cc2oc(=O)cc(C)c2cc1OC(C)=O`: the AC50 under setting [1] is 22.4 µM [falling, single point].

Regarding `O=C(O)CSc1cc(NS(=O)(=O)c2ccc(Cl)cc2)c2ccccc2c1O`, the half-maximal activity concentration (AC50) under setting [1] is 22.4 µM [falling, single point].

Regarding `COc1ccc(CCNC(=O)CSc2nnc(CNC(=O)c3c(F)cccc3Cl)o2)cc1OC`, under setting [1], the AC50 was 3.55 µM [rising, partial curve, poor fit].

Turning to `O=C1C2=C(NC(=S)NC2c2ccc(Cl)cc2)NC(c2ccc(Cl)cc2)N1c1ccc(Cl)cc1` (stereo unspecified), the AC50 under setting [1] is 10 µM [falling, partial curve].

For `O=C(NCCC1=CCCCC1)c1ccc2c(=O)n3c(nc2c1)CCCCC3`, the AC50 under setting [1] is 2.82 µM [rising, full curve, poor fit].

For `CC(=O)Nc1sc2c(c1-c1nc3ccccc3s1)CN(C(C)C)CC2`, the AC50 under setting [1] was 29.1 µM [falling, single point].

On to `O=C(CN1CCCN(S(=O)(=O)c2ccc(Br)s2)CC1)Nc1ccc(Cl)cc1`, for which the AC50 under setting [1] was 20.6 µM [falling, single point].

Regarding `Cn1c(-c2ccc(F)cc2)cc2onc(-c3ccccc3Cl)c2c1=O`, the half-maximal activity concentration (AC50) under setting [1] was 1.64 µM [rising, partial curve, poor fit].

Regarding `O=C(OCn1ncc(Br)c(Br)c1=O)c1ccccc1Cl`, the concentration at half-maximal activity (AC50) is, setting by setting: under setting [1], 5.8 µM [falling, full curve, poor fit]; under setting [2], 3.66 µM [rising, full curve, poor fit].

Consider `CC1CCc2c(sc(NC(=O)c3ccccc3C(=O)O)c2C#N)C1` (stereo unspecified), for which the AC50 under setting [1] was 11.2 µM [falling, partial curve, poor fit].

`Cc1nn(-c2ncc(C(F)(F)F)cc2Cl)c(=O)n1-c1ccccc1`: the AC50 under setting [1] was 18.4 µM [rising, partial curve, poor fit].

As for `N/C(=N\OC(=O)/C=C/c1ccccc1)c1cccnc1`, under setting [1], the concentration at half-maximal activity (AC50) is 17.8 µM [falling, single point].

`COCCNc1nc(-c2cc3ccccc3o2)cs1`: the AC50 under setting [1] is 4.61 µM [falling, full curve, poor fit].

For the molecule `CCCc1nnc(NC(=O)c2cc3ccccc3oc2=O)s1`, the half-maximal activity concentration (AC50) under setting [1] is 8.2 µM [rising, partial curve, poor fit].

In the case of `O=C1c2ccccc2NC(c2ccco2)N1/N=C/c1ccco1` (stereo unspecified), the half-maximal activity concentration (AC50) under setting [1] is 35.5 µM [falling, single point].

For `O=C(C1CCN(CCCc2ccccc2)CC1)N(CCc1ccccc1)Cc1ccccc1`, the concentration at half-maximal activity (AC50) under setting [1] was 13 µM [falling, partial curve, poor fit].

For `O=C(/C=C/NCC(=O)c1ccccc1)c1ccc(Br)cc1`, the AC50 under setting [1] was 11.6 µM [falling, partial curve].

Take `O=C(Nc1cccc(Cl)c1)c1ccc(F)c(S(=O)(=O)N2CCC3(CC2)OCCO3)c1`: under setting [1], the AC50 was 2.24 µM [rising, partial curve, poor fit].

Consider `Cc1ccc(-c2cc(C(=O)N/N=C/c3ccoc3)c3ccccc3n2)cc1`, for which the AC50 under setting [1] is 35.5 µM [rising, single point].

In the case of `O=C(Nc1ccc2oc(-c3ccncc3)nc2c1)c1ccc([N+](=O)[O-])o1`, the AC50 under setting [1] was 14.1 µM [rising, single point].

As to `Cc1ccc(-n2c(O)c(C=Nc3cc(C)on3)c3ccccc3c2=O)c(C)c1`, under setting [1], the AC50 was 32.6 µM [rising, partial curve, poor fit].

Consider `CCC(C)NC(=O)CSc1nc2n[nH]c(C)c2c(=N)n1-c1ccc(C)c(Cl)c1` (stereo unspecified), for which the concentration at half-maximal activity (AC50) under setting [1] was 20 µM [falling, partial curve, poor fit].

Consider `O=C(c1ccccc1)N1N=C(C(F)(F)F)CC1(O)c1ccccc1O` (stereo unspecified), for which the AC50 under setting [1] was 22.4 µM [falling, single point].

For the molecule `O=C(NCCOc1ccccc1)c1cc(C(=O)NCCOc2ccccc2)cc([N+](=O)[O-])c1`, under setting [1], the AC50 was 14.6 µM [falling, partial curve].

In the case of `Cc1ccc2oc(=O)c3cnn(CC(=O)N4CCN(c5ccccc5)CC4)c3c2c1`, the AC50 under setting [1] is 2.31 µM [falling, partial curve, poor fit].

In the case of `Cc1cc(C(=O)N/N=C/c2cccnc2)c(C)o1`, the concentration at half-maximal activity (AC50) under setting [1] is 18.4 µM [falling, partial curve].

Consider `N/C(=N\OC(=O)CCCc1ccccc1)c1ccccc1`, for which the AC50 under setting [1] was 5.01 µM [rising, full curve].

For the molecule `Cc1cc(C)cc(NC(=O)N2CCCC2C(=O)Nc2ccc(-n3cnnn3)cc2)c1` (stereo unspecified), the concentration at half-maximal activity (AC50) under setting [1] was 6.51 µM [rising, single point].

Consider `CCOC(=O)c1[nH]c2ccc(OC)cc2c1NC(=S)N1CCN(c2cccc(Cl)c2)CC1`, for which the AC50 under setting [1] is 32.6 µM [rising, single point].

Take `COc1ccc(Oc2nc(Oc3ccc(OC)cc3)nc(Oc3ccc(OC)cc3)n2)cc1`: under setting [1], the AC50 was 0.651 µM [falling, full curve].

Consider `CCN(c1ccccc1)S(=O)(=O)c1ccc(C(=O)Nc2ccc(C)cn2)cc1`, for which the concentration at half-maximal activity (AC50) under setting [1] was 5.8 µM [rising, partial curve, poor fit].

With `O=C(NCc1ccco1)C(=O)NCC1OCCCN1S(=O)(=O)c1ccc(F)cc1` (stereo unspecified), the AC50 under setting [1] is 6.31 µM [falling, single point].

On to `CCOc1cccc(C2CC(=O)Nc3cc(OC)c(OC)cc32)c1` (stereo unspecified), for which the AC50 is, setting by setting: under setting [1], 20 µM [rising, partial curve, poor fit]; under setting [2], 11.2 µM [falling, partial curve].

In the case of `CCOC(=O)C1CCCN(CCC(=O)Nc2cccc(C)c2)C1` (stereo unspecified), the half-maximal activity concentration (AC50) under setting [1] is 20 µM [falling, single point].

`CCCOc1cccc(C(=O)N(Cc2ccc(OC)c(OC)c2)C2CCS(=O)(=O)C2)c1` (stereo unspecified): the half-maximal activity concentration (AC50) under setting [1] was 0.103 µM [rising, full curve, poor fit].

Consider `CCOC(=O)c1[nH]c2c(c1-c1ccccc1)C(=O)CC(c1ccc(OC)c(OC)c1)C2` (stereo unspecified), for which the concentration at half-maximal activity (AC50) under setting [1] was 18.4 µM [falling, single point].

For `COc1ccc(C(=O)NCc2cn3ccsc3n2)cc1OC`, the AC50 under setting [1] was 1.16 µM [falling, partial curve, poor fit].

Regarding `CC1(C)Cc2ccccc2C(NNC(=O)c2ccccn2)=N1`, the half-maximal activity concentration (AC50) under setting [1] was 29.1 µM [rising, single point] and the concentration at half-maximal activity (AC50) under setting [2] was 23.1 µM [falling, single point].

Regarding `Cc1nc(Nc2cccc(C(C)O)c2)c2nnn(Cc3ccc(F)cc3)c2n1` (stereo unspecified), under setting [1], the AC50 is 35.5 µM [rising, partial curve, poor fit].

On to `O=C(CC(C(=O)O)C1CCCO1)NCc1ccccc1` (stereo unspecified), for which the half-maximal activity concentration (AC50) under setting [1] was 4.11 µM [falling, single point].

As to `CCNc1ccc2c(Cl)cc(=O)oc2c1`, under setting [1], the AC50 is 5.17 µM [falling, partial curve, poor fit].

Take `COc1ccc(C2CC(=O)N(CCCN(C)CCc3ccc(OC)c(OC)c3)C2)cc1` (stereo unspecified): under setting [1], the AC50 is 25.1 µM [rising, single point].
